In PMC5404846:
No constants are given. Whether binding was seen depends on the method and setting.

How the values were obtained:
[1] = molecular target: T1, MEDIATOR21 (Arabidopsis thaliana (Col-0 cDNA)) (UniProt C0LU16); assay: two-hybrid; GAL4 DNA-binding domain baits (pDEST32) and GAL4 activation domain preys (pDEST22) co-transformed into S. cerevisiae MaV203; serial dilutions plated on SC-Leu-Trp and on SC-Leu-Trp-His with 12.5 mM 3-aminotriazole; repeated with separate transformations
T1 sequence: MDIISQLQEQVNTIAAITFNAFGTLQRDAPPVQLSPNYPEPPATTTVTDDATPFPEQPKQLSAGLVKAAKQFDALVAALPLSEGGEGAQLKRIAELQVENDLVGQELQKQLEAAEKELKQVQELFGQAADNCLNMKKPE

[2] = molecular target: T2, MEDIATOR8 (Arabidopsis thaliana (Col-0 cDNA)) (UniProt Q4V3C1); assay: as above
T2 sequence: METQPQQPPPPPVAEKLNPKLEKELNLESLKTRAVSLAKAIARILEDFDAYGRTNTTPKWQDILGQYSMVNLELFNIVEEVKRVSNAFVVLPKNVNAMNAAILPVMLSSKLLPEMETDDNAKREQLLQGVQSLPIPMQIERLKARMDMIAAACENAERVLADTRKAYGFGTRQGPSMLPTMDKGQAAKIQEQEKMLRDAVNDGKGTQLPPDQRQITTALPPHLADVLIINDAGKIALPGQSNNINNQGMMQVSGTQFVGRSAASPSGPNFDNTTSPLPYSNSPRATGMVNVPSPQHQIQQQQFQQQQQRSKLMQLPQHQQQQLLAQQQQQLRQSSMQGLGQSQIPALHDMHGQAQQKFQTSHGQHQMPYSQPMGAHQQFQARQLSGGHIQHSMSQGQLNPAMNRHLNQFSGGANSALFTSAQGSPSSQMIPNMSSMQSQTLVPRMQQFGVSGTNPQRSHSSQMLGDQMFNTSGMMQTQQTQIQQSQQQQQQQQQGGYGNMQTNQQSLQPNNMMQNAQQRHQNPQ

binding [1]: no binding
binding [2]: no binding
B1: MEDIATOR18 (protein, UniProt Q9SJZ6 1-219)
chain: MSMECVVQGIIETQHVEALEILLQGLCGVQRERLRVHELCLRSGPNLGVVSSEVRLLCDLDQPEPTWTVKHVGGAMRGAGADQISVLVRNMIESKVSKNALRMFYALGYKLDHELLKVGFAFHFQRTAHISVSVSSVNKMPKVHAIDEAVPVTPGMQIVDVTAPATSENYSEVAAAVSSFCEFLAPLVHLSKPSISTGVVPTAAAAAASLMSDGGGTTL
